US20240287501A1
Results are given in words; binding and its absence hold for the method and conditions named. In cells and extracts the contact can be indirect. Some binding calls cover weakened binding; strength is not graded here. Sequences can lack the tags named with a protein.

Assays:
[1] = molecular target: T1, GFP-tagged FBA1 (Saccharomyces cerevisiae) (UniProt P14540); experiment: co-immunoprecipitation, Nb coupled to NHS-agarose beads, lysate of the yeast strain expressing the GFP-tagged target, Western blot anti-GFP
T1 sequence (looked up): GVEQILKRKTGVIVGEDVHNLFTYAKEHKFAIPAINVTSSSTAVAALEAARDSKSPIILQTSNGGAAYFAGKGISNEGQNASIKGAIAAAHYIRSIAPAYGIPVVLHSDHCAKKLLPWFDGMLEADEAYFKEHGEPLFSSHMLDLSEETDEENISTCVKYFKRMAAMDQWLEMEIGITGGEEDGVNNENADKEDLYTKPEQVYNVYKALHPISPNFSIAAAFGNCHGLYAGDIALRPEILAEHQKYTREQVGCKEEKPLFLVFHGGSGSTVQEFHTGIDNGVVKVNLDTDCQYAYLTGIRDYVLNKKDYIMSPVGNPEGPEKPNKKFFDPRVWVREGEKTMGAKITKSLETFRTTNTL

[2] = molecular target: T2, FBA1 (native, from EBY100 lysate) (Saccharomyces cerevisiae) (UniProt P14540); experiment: co-immunoprecipitation, Nb coupled to NHS-agarose beads, EBY100 yeast lysate (native target), SDS-PAGE
T2 sequence (looked up): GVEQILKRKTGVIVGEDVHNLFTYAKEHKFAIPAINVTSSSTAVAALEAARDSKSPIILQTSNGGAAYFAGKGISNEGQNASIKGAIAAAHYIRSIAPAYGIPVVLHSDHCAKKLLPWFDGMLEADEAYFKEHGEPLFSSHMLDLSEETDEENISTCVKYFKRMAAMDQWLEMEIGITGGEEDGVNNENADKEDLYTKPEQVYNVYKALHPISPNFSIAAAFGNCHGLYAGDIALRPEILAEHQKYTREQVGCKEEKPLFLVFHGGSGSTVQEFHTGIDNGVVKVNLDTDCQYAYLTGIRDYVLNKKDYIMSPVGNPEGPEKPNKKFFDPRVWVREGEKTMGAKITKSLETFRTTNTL

[3] = molecular target: T1, GFP-tagged FBA1 (Saccharomyces cerevisiae); experiment: co-immunoprecipitation, Nb coupled to NHS-agarose beads, lysate of the yeast strain expressing the GFP-tagged target, SDS-PAGE

Measured: binding

B1: CA17443 (VHH)
VHH: QVQLVESGGGSVQPGGSLRLSCAASGNILRIYSMGWSRQAPGKQRELVASITRAGSTRYADSVKGRFTISRDSTNNMVYLQMNSLEPEDTAVYFCNANPVYDGSAGYWGQGTQVTVSS
binds: all assays above
